# Data reported in patent US20150164895A1, “DETERMINING SENSITIVITY OF CELLS TO B-RAF INHIBITOR TREATMENT BY DETECTING KRAS MUTATION AND RTK EXPRESSION LEVELS” (GENENTECH, INC., priority 2009, published 2015).
# Where “and” joins values, the source holds several entries; their conditions need not be identical. Equal values may be shown once. Further values from the same series stand in other lists.
# What was measured:
# lung tumor xenografts = experiment: Experiment H327: growth in lung tumor xenografts after dosing with B-RAF inhibitor; type: in vivo, mice; details: individual tumor; for Relative tumor volume: LXFA 1041/9N4; for Absolute tumor volume: (a*b*b)/2: LXFA 1041/9N4 Lung, adeno, listed as G-026887, 100 mg/kg/day
# Description: (§1) FIGS. 10-18 depict growth in lung tumor xenografts after dosing with GDC-0879.
# (§2) The data are shown below, and in FIGS. 10-14 for Experiment H331 and FIGS. 15-18 for Experiment H327.
# [1] = system: LXFA 983/9N4 (Lung, adeno); experiment: Oncotest Exp H331: growth of LXFA 983 lung tumor xenograft after dosing with B-RAF inhibitor; type: in vivo, mice; details: H331-2, 100 mg/kg/day, Days 0-21, individual tumors, listed as G-026887
# Description: as §1, §2
smiles,measurement,setting,value
"OCCn1cc(-c2ccc3c(c2)CC/C3=N\O)c(-c2ccncc2)n1 [GDC-0879, 2-{4-[(1E)-1-(hydroxyimino)-2,3-dihydro-1H-inden-5-yl]-3-(pyridine-4-yl)-1H-pyrazol-1-yl}ethan-1-ol]",Relative tumor volume,"lung tumor xenografts; H327-2, 100 mg/kg/day po Days 0-20, study day 3, listed as G-026887",159.3% and 120.5% and 149.1% and 170.6% and 182.9%
same,Relative tumor volume,"lung tumor xenografts; H327-2, 100 mg/kg/day po Days 0-20, study day 7, listed as G-026887",263.6% and 224.4% and 197.1% and 210.3% and 205.9% and 232.3%
same,Relative tumor volume,"lung tumor xenografts; H327-2, 100 mg/kg/day po Days 0-20, study day 10, listed as G-026887",423.4% and 341.8% and 306.8% and 319.0% and 398.1% and 329.2%
same,Relative tumor volume,"lung tumor xenografts; H327-2, 100 mg/kg/day po Days 0-20, study day 14, listed as G-026887",1016.2% and 531.2% and 353.0% and 533.4% and 528.1% and 442.2%
same,Relative tumor volume,"lung tumor xenografts; H327-2, 100 mg/kg/day po Days 0-20, study day 17, listed as G-026887",1519.8% and 687.7% and 584.5% and 791.4% and 587.5% and 537.8%
same,Relative tumor volume,"lung tumor xenografts; H327-2, 100 mg/kg/day po Days 0-20, study day 20, listed as G-026887",1703.4% and 799.1% and 668.2% and 931.0% and 796.3% and 642.3%
same,Absolute tumor volume: (a*b*b)/2,"lung tumor xenografts; H327-2, 100 mg/kg/day po Days 0-20, study day 0",86.2 mm3 and 75.7 mm3 and 81.1 mm3 and 117.0 mm3 and 123.0 mm3
same,Absolute tumor volume: (a*b*b)/2,"lung tumor xenografts; H327-2, 100 mg/kg/day po Days 0-20, study day 3",159.5 mm3 and 120.6 mm3 and 109.3 mm3 and 120.9 mm3 and 199.6 mm3 and 225.0 mm3
same,Absolute tumor volume: (a*b*b)/2,"lung tumor xenografts; H327-2, 100 mg/kg/day po Days 0-20, study day 7",180.3 mm3 and 164.8 mm3 and 169.9 mm3 and 178.9 mm3 and 170.6 mm3 and 240.9 mm3 and 285.8 mm3
same,Absolute tumor volume: (a*b*b)/2,"lung tumor xenografts; H327-2, 100 mg/kg/day po Days 0-20, study day 10",228.1 mm3 and 264.7 mm3 and 258.8 mm3 (2×) and 278.4 mm3 and 465.8 mm3 and 405.0 mm3
same,Absolute tumor volume: (a*b*b)/2,"lung tumor xenografts; H327-2, 100 mg/kg/day po Days 0-20, study day 14",451.2 mm3 and 635.1 mm3 and 402.2 mm3 and 320.3 mm3 and 432.7 mm3 and 617.9 mm3 and 544.0 mm3
same,Absolute tumor volume: (a*b*b)/2,"lung tumor xenografts; H327-2, 100 mg/kg/day po Days 0-20, study day 17",643.5 mm3 and 949.9 mm3 and 520.7 mm3 and 530.5 mm3 and 642.0 mm3 and 687.3 mm3 and 661.5 mm3
same,Absolute tumor volume: (a*b*b)/2,"lung tumor xenografts; H327-2, 100 mg/kg/day po Days 0-20, study day 20",853.1 mm3 and 1064.6 mm3 and 605.0 mm3 and 606.4 mm3 and 755.2 mm3 and 931.6 mm3 and 790.1 mm3
same,Relative tumor volume,"lung tumor xenografts; H327-5, 100 mg/kg/day po Day 0, study day 0",100.0%
same,Absolute tumor volume: (a*b*b)/2,[1]; study day 7,113.4 mm3
same,Relative tumor volume,[1]; study day 7,293.3%
same,Absolute tumor volume: (a*b*b)/2,[1]; study day 10,200.9 mm3
same,Relative tumor volume,[1]; study day 10,311.1%
same,Absolute tumor volume: (a*b*b)/2,[1]; study day 14,461.7 mm3
same,Relative tumor volume,[1]; study day 14,382.1%
same,Absolute tumor volume: (a*b*b)/2,[1]; study day 17,640.5 mm3
same,Relative tumor volume,[1]; study day 17,580.3%
same,Absolute tumor volume: (a*b*b)/2,[1]; study day 21,1125.0 mm3
same,Relative tumor volume,[1]; study day 21,669.2%
